Data published in patent publication US10159726B2, “Peptides, combination of peptides and scaffolds for use in immunotherapeutic treatment of various cancers” (Immatics Biotechnologies GmbH, priority 2015, dated 2018).
For some of these results: For expression read-outs the peptide stands for its source gene, whose mRNA was measured; the gene is not named for every peptide.

What was measured:
Set-up in all cases: species or system human
[1] = system: source genes of selected peptides; test: Target coverage of source genes in tumor entities based on TCGA Research Network data; conditions: over-expressed = more than 2-fold above the highest 75% percentile of normal organs; for Target coverage, over-expression category of source gene, BLCA (N = 408): Bladder urothelial carcinoma; for Target coverage, over-expression category of source gene, CESC (N = 307): Cervical squamous cell carcinoma and endocervical adenocarcinoma; for Target coverage, over-expression category of source gene, HNSC (N = 521): Head and neck squamous cell carcinoma; for Target coverage, over-expression category of source gene, DLBC (N = 48): Lymphoid neoplasm diffuse large B-cell lymphoma
[2] = system: HLA-A*24 molecules of primary tumors; test: Identification and relative LC-MS quantitation of HLA-A*24 tumor-associated peptides presented on tissue samples (XPRESIDENT presentation profiles); conditions: for Peptide Presentation on cancer entities: Table 9B: selected HLA-A*24 peptides, presentation on additional cancer entities; for ENTITIES: Table 9A: selected HLA-A*24-binding tumor-associated peptides, cancer entities on which the peptide was found presented
[3] = system: source genes of selected peptides; test: Expression profiling of source genes by in-house RNAseq, tumor vs normal tissues (target coverage); conditions: for Target coverage, over-expression of source gene, AML: AML (N = 7); for Target coverage, over-expression of source gene, AML / Target coverage, over-expression of source gene, BRCA / Target coverage, over-expression of source gene, CLL / Target coverage, over-expression of source gene, CRC / Target coverage, over-expression of source gene, GB / Target coverage, over-expression of source gene, HCC / Target coverage, over-expression of source gene, OC / Target coverage, over-expression of source gene, OSCAR / Target coverage, over-expression of source gene, PC / Target coverage, over-expression of source gene, RCC / Target coverage, over-expression of source gene, SCLC / Target coverage, over-expression of source gene, pNSCLC: share of tumors with more than 1.5-fold higher expression than highest relevant normal tissue, in-house RNASeq; for Target coverage, over-expression of source gene, BRCA: BRCA (N = 10); for Target coverage, over-expression of source gene, CLL: CLL (N = 10); for Target coverage, over-expression of source gene, CRC: CRC (N = 20); for Target coverage, over-expression of source gene, GB: GB (N = 24); for Target coverage, over-expression of source gene, HCC: HCC (N = 15); for Target coverage, over-expression of source gene, OC: OC (N = 12); for Target coverage, over-expression of source gene, OSCAR: OSCAR (N = 11); for Target coverage, over-expression of source gene, PC: PC (N = 26); for Target coverage, over-expression of source gene, RCC: RCC (N = 10); for Target coverage, over-expression of source gene, SCLC: SCLC (N = 10); for Target coverage for source genes of selected peptides, GBC_CCC (N = 10): gallbladder adenocarcinoma and cholangiocarcinoma; for Target coverage for source genes of selected peptides, GBC_CCC (N = 10) / Target coverage for source genes of selected peptides, GC (N = 11) / Target coverage for source genes of selected peptides, HNSCC (N = 10) / Target coverage for source genes of selected peptides, MEL (N = 10) / Target coverage for source genes of selected peptides, NHL (N = 10) / Target coverage for source genes of selected peptides, PCA (n = 10) / Target coverage for source genes of selected peptides, UBC (N = 10) / Target coverage for source genes of selected peptides, UTC (N = 10): share of tumors with more than 1.5-fold higher expression than the highest-expressing relevant normal tissue, in-house RNAseq; for Target coverage for source genes of selected peptides, GC (N = 11): gastric cancer; for Target coverage for source genes of selected peptides, HNSCC (N = 10): head and neck small cell carcinoma; for Target coverage for source genes of selected peptides, MEL (N = 10): melanoma; for Target coverage for source genes of selected peptides, NHL (N = 10): non-Hodgkin lymphoma; for Target coverage, over-expression of source gene, pNSCLC: pNSCLC (N = 11); for Target coverage for source genes of selected peptides, PCA (n = 10): prostate cancer and benign prostate hyperplasia; for Target coverage for source genes of selected peptides, UBC (N = 10): urinary bladder cancer; for Target coverage for source genes of selected peptides, UTC (N = 10): uterine cancer

Substance	Target coverage, over-expression category of source gene, BLCA (N = 408) [1]	Target coverage, over-expression of source gene, AML [3]	Target coverage, over-expression of source gene, BRCA [3]	Target coverage, over-expression of source gene, CLL [3]	Target coverage, over-expression of source gene, CRC [3]	Target coverage, over-expression of source gene, GB [3]	Target coverage, over-expression of source gene, HCC [3]	Target coverage, over-expression of source gene, OC [3]	Target coverage, over-expression of source gene, OSCAR [3]	Target coverage, over-expression of source gene, RCC [3]	Target coverage, over-expression of source gene, SCLC [3]	Target coverage for source genes of selected peptides, GBC_CCC (N = 10) [3]	Target coverage for source genes of selected peptides, GC (N = 11) [3]	Target coverage for source genes of selected peptides, HNSCC (N = 10) [3]	Target coverage for source genes of selected peptides, MEL (N = 10) [3]	Target coverage for source genes of selected peptides, NHL (N = 10) [3]	Target coverage, over-expression of source gene, pNSCLC [3]	Target coverage for source genes of selected peptides, PCA (n = 10) [3]	Target coverage for source genes of selected peptides, UBC (N = 10) [3]	Target coverage for source genes of selected peptides, UTC (N = 10) [3]	further results
342: peptide found in APOBEC3B (gene looked up) (NYAFLHRTL; listed as Homo sapiens) [compound 342]	C (>=5% of tumors above the cutoff, but <20%)	II (20-49% = II)	I (<19% over-expression = I)	I (<19% over-expression = I)	I (<19% over-expression = I)	I (<19% over-expression = I)	I (<19% over-expression = I)	II (20-49% = II)	III (50-69% = III)	I (<19% over-expression = I)	I (<19% over-expression = I)	I (<19% over-expression = I)	I (<19% over-expression = I)	I (<19% over-expression = I)	I (<19% over-expression = I)	I (<19% over-expression = I)	I (<19% over-expression = I)	I (<19% over-expression = I)	II (20-49% = II)	I (<19% over-expression = I)	Target coverage, over-expression category of source gene, CESC (N = 307) [1]: C (>=5% of tumors above the cutoff, but <20%); Target coverage, over-expression category of source gene, HNSC (N = 521) [1]: C (>=5% of tumors above the cutoff, but <20%); Target coverage, over-expression category of source gene, DLBC (N = 48) [1]: C (>=5% of tumors above the cutoff, but <20%); Peptide Presentation on cancer entities [2]: NSCLC; Target coverage, over-expression of source gene, PC [3]: I (<19% over-expression = I)
343: peptide found in AR (gene looked up) (NYLGGTSTI; listed as Homo sapiens) [compound 343]	–	I (<19% over-expression = I)	II (20-49% = II)	I (<19% over-expression = I)	I (<19% over-expression = I)	I (<19% over-expression = I)	II (20-49% = II)	I (<19% over-expression = I)	I (<19% over-expression = I)	I (<19% over-expression = I)	II (20-49% = II)	I (<19% over-expression = I)	I (<19% over-expression = I)	I (<19% over-expression = I)	I (<19% over-expression = I)	I (<19% over-expression = I)	I (<19% over-expression = I)	IV (>70% = IV)	I (<19% over-expression = I)	II (20-49% = II)	Target coverage, over-expression category of source gene, KIRP (N = 291) ([1]; Kidney renal papillary cell carcinoma): C (>=5% of tumors above the cutoff, but <20%); ENTITIES [2]: PCA, HCC, GB
344: peptide found in BUB1 (gene looked up) (EYNSDLHQF; listed as Homo sapiens) [compound 344]	B (>=20% of tumors above the cutoff, but <50%)	I (<19% over-expression = I)	I (<19% over-expression = I)	I (<19% over-expression = I)	I (<19% over-expression = I)	I (<19% over-expression = I)	I (<19% over-expression = I)	I (<19% over-expression = I)	I (<19% over-expression = I)	I (<19% over-expression = I)	II (20-49% = II)	I (<19% over-expression = I)	I (<19% over-expression = I)	I (<19% over-expression = I)	I (<19% over-expression = I)	II (20-49% = II)	I (<19% over-expression = I)	I (<19% over-expression = I)	I (<19% over-expression = I)	I (<19% over-expression = I)	Target coverage, over-expression category of source gene, CESC (N = 307) [1]: B (>=20% of tumors above the cutoff, but <50%); Target coverage, over-expression category of source gene, HNSC (N = 521) [1]: B (>=20% of tumors above the cutoff, but <50%); Target coverage, over-expression category of source gene, DLBC (N = 48) [1]: A (>=50% of tumors above the cutoff); Target coverage, over-expression category of source gene, MESO (N = 87) ([1]; Mesothelioma): C (>=5% of tumors above the cutoff, but <20%); ENTITIES [2]: GB, RCC, HCC, NSCLC, GC; Peptide Presentation on cancer entities [2]: PCA; Target coverage, over-expression of source gene, PC [3]: I (<19% over-expression = I)
